{"source": "paper PMC5469152", "note": "These are yes or no findings as the source states them, for the method shown. Binding calls can cover weak binding; strength is not graded here.", "data": [{"target": "T1, Extra-large G protein 1 (XLG1), yeast two-hybrid bait (Arabidopsis thaliana) (UniProt O80462)", "T1 sequence": "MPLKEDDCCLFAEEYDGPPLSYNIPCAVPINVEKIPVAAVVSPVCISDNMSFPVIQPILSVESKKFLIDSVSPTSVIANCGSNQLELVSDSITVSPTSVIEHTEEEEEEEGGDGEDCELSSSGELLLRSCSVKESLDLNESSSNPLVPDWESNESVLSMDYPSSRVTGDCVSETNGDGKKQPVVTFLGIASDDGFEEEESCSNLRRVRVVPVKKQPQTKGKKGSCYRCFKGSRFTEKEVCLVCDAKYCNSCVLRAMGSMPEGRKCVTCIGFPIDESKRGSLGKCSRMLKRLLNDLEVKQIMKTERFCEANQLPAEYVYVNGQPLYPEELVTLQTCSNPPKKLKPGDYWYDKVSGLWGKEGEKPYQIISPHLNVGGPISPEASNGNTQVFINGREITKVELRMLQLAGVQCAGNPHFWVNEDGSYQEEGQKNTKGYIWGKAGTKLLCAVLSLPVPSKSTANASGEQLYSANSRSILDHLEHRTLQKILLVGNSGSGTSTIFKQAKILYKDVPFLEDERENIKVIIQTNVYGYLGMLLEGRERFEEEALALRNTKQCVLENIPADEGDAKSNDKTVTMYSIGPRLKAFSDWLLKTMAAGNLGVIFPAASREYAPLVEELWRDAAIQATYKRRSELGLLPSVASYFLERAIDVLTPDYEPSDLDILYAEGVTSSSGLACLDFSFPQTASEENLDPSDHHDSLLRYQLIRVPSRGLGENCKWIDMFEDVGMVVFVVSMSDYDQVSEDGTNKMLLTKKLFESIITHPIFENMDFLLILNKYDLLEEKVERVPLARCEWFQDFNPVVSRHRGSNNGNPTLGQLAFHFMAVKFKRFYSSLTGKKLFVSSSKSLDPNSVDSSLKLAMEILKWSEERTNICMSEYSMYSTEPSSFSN", "assay": "two-hybrid; library screen by mating; XLG1 bait in pAS2-1 in strain AH109, cDNA libraries (GLUC, ROOT, SAL) in Y187; quadruple dropout (-Try/Leu/His/Ade) plates with 10 mM 3-AT, then with 20 mM 3-AT", "values": [{"substance": "RNA recognition motif-containing protein (At3g04500) (Arabidopsis thaliana)", "binding": "binds"}, {"substance": "SCP1-like small phosphatase 4b (Arabidopsis thaliana)", "binding": "binds"}, {"substance": "Dessication responsive protein (Arabidopsis thaliana)", "binding": "binds"}]}]}
